From publication PMC7359099

Molecular target: T1, Dual specificity mitogen-activated protein kinase kinase 3, Flag-tagged (human) (UniProt P46734)
T1 sequence: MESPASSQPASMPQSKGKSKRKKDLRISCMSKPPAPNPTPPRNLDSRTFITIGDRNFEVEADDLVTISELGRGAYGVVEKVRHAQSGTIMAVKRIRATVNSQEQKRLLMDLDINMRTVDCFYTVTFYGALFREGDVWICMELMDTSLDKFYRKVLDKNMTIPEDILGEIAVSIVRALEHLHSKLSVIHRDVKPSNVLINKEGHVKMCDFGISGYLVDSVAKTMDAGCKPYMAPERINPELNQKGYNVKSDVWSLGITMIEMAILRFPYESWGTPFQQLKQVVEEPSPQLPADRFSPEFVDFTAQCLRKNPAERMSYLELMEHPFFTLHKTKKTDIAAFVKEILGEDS
Experiment: co-IP; Lysates (IP lysis buffer) of HEK293T cells transfected with Flag-MKK3 or HA-MKK6; immunoprecipitation with anti-Flag or anti-HA at 4°C overnight; western blot for p38 and phospho-p38; cells with or without capsaicin (75 μM)

With “Mitogen-Activated Protein Kinase P38 (human (endogenous in HEK293T)) (enzyme)” the binding was “binds”.

No constants are given. Whether binding was seen depends on the method and setting. Binding seen in cells or lysates may run through a third protein. A result given as binding can be weak or reduced; the word gives no strength. Where a sequence is shown, tags or fusion partners need not be part of it.
